Test results reported in article PMC11672294, “The Antipsychotic Drug Aripiprazole Suppresses Colorectal Cancer by Targeting LAMP2a to Induce RNH1/miR‐99a/mTOR‐Mediated Autophagy and Apoptosis” (Advanced Science, 2024).
Counter-ions that a name gives are not always drawn. The entries are a selection whose mix differs from that of the whole data set.

System: HT29
Conditions: 72 h, relative to DMSO; 10 µM
Text: To investigate the key signaling pathways and biological processes involved in CRC progression, we analyzed the National Center for Biotechnology Information Gene Expression Omnibus (GEO) dataset GSE115313, which included 42 CRC and paired normal tissues (Figure 1A). […] Next, we performed an Annexin V‐fluorescein isothiocyanate (FITC)/propidium iodide (PI) staining assay to determine the effect of aripiprazole on apoptosis in CRC cells. […] A) Principal component analysis of GEO dataset (GSE115313), which includes 42 CRC and paired normal tissues. B) Gene Ontology pathway analysis of the DEPs between CRC and paired normal tissues. […] D) Schematic diagram for identifying anticancer drugs amongst an US Food and Drug Administration‐approved small‐molecule library (616 compounds) using WST‐1 assay. E) HT29 cells were treated with the 616 drugs (10 µM) individually or with dimethyl sulfoxide for 72 h, followed by WST‐1 assay. […] J) Mice bearing HT29‐derived tumor xenografts were intragastrically administered with aripiprazole (10 or 20 mg kg^−1) once every 2 d, n = 6 mice/group. […] Bars, SD; ^* p < 0.05; ^** p < 0.01; ^*** p < 0.001; ns, no significant difference. The WST‐1 Cell Proliferation and Cytotoxicity Assay Kit (Beyotime Biotechnology, Shanghai, China) was used to measure cell viability, as described previously.^[ [10] ^] CRC cells were seeded into 96‐well plates and treated with different drug concentrations. Following that, WST‐1 was added to the plate and incubated with the cells for 2 h, at 37 °C. Absorbance at the wavelength of 450 nm was measured using an automated microplate spectrophotometer (BioTek Instruments, Winooski, VT, USA).

| Compound | Relative cell viability (%) [%] |
| --- | --- |
| Cc1cc(NS(=O)(=O)c2ccc(N)cc2)no1 [Sulfamethoxazole] | 138.2 |
| CC(C)c1c(C(=O)Nc2ccccc2)c(-c2ccccc2)c(-c2ccc(F)cc2)n1CC[C@@H](O)C[C@@H](O)CC(=O)O [Atorvastatin Calcium] | 113.8 |
| CCN(CC)CC(=O)Nc1c(C)cccc1C [Lidocaine] | 96.11 |
| CN(C)CCOC(c1ccccc1)c1ccccc1 [Diphenhydramine HCl] | 105.9 |
| CC(C)NC[C@@H](O)COc1ccc(CC(N)=O)cc1 [(R)-(+)-Atenolol] | 59.39 |
| O=C(O)COCCN1CCN(C(c2ccccc2)c2ccc(Cl)cc2)CC1 (stereo not shown) [Cetirizine DiHCl] | 68.07 |
| CN1[C@@H]2CC[C@H]1C[C@@H](OC(=O)C(CO)c1ccccc1)C2 (stereo partly shown) [Atropine] | 116.1 |
